Assay results as given in publication PMC11079228.
No constants are given. Whether binding was seen depends on the method and setting. In cells and extracts the contact can be indirect. A yes stands for co-enrichment or nearness to the bait. Other partners may have been found. Values belong to the binder of their own block, whether it stands above or below them.

Target: Huntingtin-interacting protein 1 (rat) (rat (endogenous in rat FLS))
Assay: affinity purification with mass spectrometry; rabbit anti-rat-HIP1 antibody (20 μg per sample) on Dynabeads M-270 Epoxy; total lysates of rat FLS (one DA and one R6 cell line, each in triplicate), starved 24 h, then PDGFβ 100 ng/mL 30 min; lysis in water with protease and phosphatase inhibitors by three freeze-thaw cycles; elution with 8 M urea, LysC and trypsin, nano-LC-MS/MS, label-free quantitation

binding: binds
B1: PSMF1 (protein, UniProt Q5XIU5 1-271)
chain: MAGLEVLFASAAPAMTCPQDALVCFLHWEVVTNGYYGLGTGDQPDPNDKKSELLPAEWNSNKELYALRYESKDGARKLLLKAVSVENGMIINVLEHGTQQVADLTLNLDDYIDAEDLSDFHRTYKNSEELRSRIRSGIITPIHEQWEKVRLSSPPREFPPATAREVDPLRISSHHPHTSRQPTWRDPLSPFAVGGEDLDPFGCQRGGMIVDPLRSGFPRALIDPSSGLPNRLPPGAVPPGARFDPFGPIGTSPSGPNPDHLPPPGYDDMYL

binding: binds
B2: SH3GLB1 (protein, UniProt Q6AYE2 1-365)
chain: MNIMDFNVKKLAADAGTFLSRAVQFTEEKLGQAEKTELDAHLENLLSKAECTKVWTEKIMKQTEVLLQPNPNARIEEFVYEKLDRKAPSRINNPELLGQYMIDAGTEFGPGTAYGNALIKCGETQKRIGTADRELIQTSALNFLTPLRNFIEGDYKTIAKERKLLQNKRLDLDAAKTRLKKAKAAETKSSSEQELRITQSEFDRQAEITRLLLEGISSTHAHHLRCLNDFVEAQMTYYAQCYQYMLDLQKQLGSFPSNYVSNNNQTSGTPVPYTLSNTIGPSAVASTGSLVITCPPNLSDLKDSSSTRKARVLYDYDAANSTELSLLADEVITVFSVVGMDSDWLMGERGNQKGKVPITYLELLN

binding: binds
B3: CSDE1 (protein, UniProt P18395 1-798)
chain: MSFDPNLLHNNGHNGYPNGTSAALRETGVIEKLLTSYGFIQCSERQARLFFHCSQYNGNLQDLKVGDDVEFEVSSDRRTGKPIAIKLVKIKPEIHPEERMNGQVVCAVPHNLESKSPAAPGQSPTGSVCYERNGEVFYLTYTSEDVEGNVQLETGDKINFVIDNNKHTGAVSARNIMLLKKKQARYQGVVCAMKEAFGFIERGDVVKEIFFHYSEFKGDLETLQPGDDVEFTIKDRNGKEVATDVRLLPQGTVIFEDISIEHFEGTVTKVIPKVPSKNQNDPLPGRIKVDFVIPKELPFGDKDTKSKVTLLEGDHVRFNISTDRRDKLERATNIEVLSNTFQFTNEAREMGVIAAMRDGFGFIKCVDRDARMFFHFSEILDGNQLHIADEVEFTVVPDMLSAQRNHAIRIKKLPKGTVSFHSHSDHRFLGTVEKEATFSNPKTTSPNKGKDKEAEDGIIAYDDCGVKLTIAFQAKDVEGSTSPQIGDKVEFSISDKQRPGQQIATCVRLLGRNSNSKRLLGYVATLKDNFGFIETANHDKEIFFHYSEFSGDVDSLELGDMVEYSLSKGKGNKVSAEKVNKTHSVNGITEEANPTIYSGKVIRPLRGVDPTQIEYQGMIEIVEEGDMKGEVYPFGIVGMANKGDCLQKGESVKFQLCVLGQNAQTMAYNITPLRRATVECVKDQFGFINYEVGDSKKLFFHVKEVQDGIELQAGDEVEFSVILNQRTGKCSACNVWRVCEGPKAVAAPRPDRLVNRLKNITLDDASAPRLMVLRQPRGPDNSMGFGAERKIRQAGVID

binding: binds
B4: HNRNPM (protein, UniProt Q62826 1-690)
chain: MAAGVEAAAEVAATEPKMEEESGAPCVPSGNGAPVPKGEERPTQNEKRKEKNIKRGGNRFEPYANPTKRYRAFITNIPFDVKWQSLKDLVKEKVGEVTYVELLMDAEGKSRGCAVVEFKMEESMKKAAEVLNKHSLSGRPLKVKEDPDGEHARRAMQKAGRLGSTVFVANLDYKVGWKKLKEVFSMAGVVVRADILEDKDGKSRGIGTVTFEQSIEAVQAISMFNGQLLFDRPMHVKMDERALPKGDFFPPERPQQLPHGLGGIGMGLGPGGQPIDANHLNKGIGMGNLGPAGMGMEGIGFGINKIGGMEGPFGGGMENMGRFGSGMNMGRINEILSNALKRGEIIAKQGGSGAGGSVPGIERMGPGIDRISGAGMERMGAGLGHGMDRVGSEIERMGLVMDRMGSVERMGSGIERMGPLGLDHMASSIERMGQTMERIGSGVERMGAGMGFGLERMAAPIDRVGQTIERMGSGVERMGPAIERMGLSMDRMVPTGMGAGLERMGPVMDRMATGLERMGANNLERMGLERMGANSLERMGLERMGANSLERMGPAMGPALGAGIERMGLAMGGAGGASFDRTIEMERGNFGGSFAGSFGGAGGHAPGVARKACQIFVRNLPFDFTWKMLKDKFNECGHVLYADIKMENGKSKGCGVVKFESPEVAERACRMMNGMKLSGREIDVRIDRNA

binding: binds
B5: bolA family member 2 (protein, UniProt D4A9P7 1-86)
chain: MELSADYLREKLRQDLEAEHVEVEDTTLNRCATSFRVLVVSAKFEGKPLLQRHRLVNECLAEELPHIHAFEQKTLTPEQWTRQRQE

binding: binds
B6: UBXN1 (protein, UniProt Q499N6 1-297)
chain: MAELTALESLIEMGFPRGRAEKALALTGNQGIEAAMDWLMEHEDDPDVDEPLETPLSHILGREPTPSEQVGPEGSGSAAGESKPVLTEEERQEQTKRMLELVAQKQREREEREEREALEREKQRRRQGQELSAARQKLQEDEIRRAAEERRREKAEELAARQRVREKIERDKAERAQKYGGTVGSRSSPPATDPGPVPSSPRQEPPTKREYDQCRIQVRLPDGTSLTQTFRAREQLAAVRLYVELHRGEEPGQDQDPVQLLSGFPRRAFSEADMERPLQELGLVPSAVLIVAKKCPS

binding: binds
B7: GAK (protein, UniProt P97874 1-1305)
chain: MSLLQSALDFLAGPGSLGGAAGRDQSDFVGQTVELGELRLRVRRVLAEGGFAFVYEAQDLGSGREYALKRLLSNEEEKNRAIIQEVCFLKKLSGHPNIVQFCSAASIGKEESDTGQAEFLLLTELCKGQLVEFLRRVECKGPLSCDSILKIFYQTCRAVQHMHRQKPPIIHRDLKVENLLLSNQGTIKLCDFGSATTISHYPDYSWSAQKRAMVEEEITRNTTPMYRTPEIVDLYSNFPIGEKQDIWALGCILYLLCFRQHPFEDGAKLRIVNGKYSIPVNDTRYTVFHDLIRGMLKVNPEERLSIAEVVRQLQEIAAARNVNPKAPITELLEQNGGYGNSGPSRAQPPSGGPVNSSGVLALAEYDQPYGGFLDILRGGTERLFTNLKDTSSKVIQSVANYAKGDLDISYITSRIAVMSFPAEGVESAIKNNIEDVRLFLDAKHPGHYAVYNLSPRIYRASKFHNRVTECGWAVRRAPHLHSLYTLCRSMHAWLREDHRNVCVVHCMDGRAASAVAVCAFLCFCRLFSTAEAAVYMFSMKRCPPGIWPSHKRYIEYVCDMVAEEPITPHSKPMLVKSVVMTPVPLFSKQRNGCRPFCEVYVGEERVTTTSQEYDRMKEFKIEDGKAVIPLGITVQGDVLTIIYHARSTLGGRLQAKMASMKMFQIQFHTGFVPRNATTVKFAKYDLDACDIQEKYPDLFQVNLEVEVEPRDRPSRDVPPWENTSLRGLNPKILFSNREEQQDILSKFGKPELPRQPGSTAQYDAEAGSPEAEITESDSPQSSSTDTNHFLHTLDWQEEKDPETGVDNTSPKESQSNLIADGDGSEVSDEEEASCPSEERKPGAGEDTPRLAAGTRQQDLIFDVGMLAAPQEPVQPEEGVDLLGLHSEGDLRPAAPLQASGVQSSNTDLLSSLLEPSDASQVGPPGDLLGGETPLLLASPVSLLGVQSNLQGKVPDTVDPFDQFLLPSSSDTQPCSKPDLFGEFLNSDSVASSTAFPSTHSAPPPSCSTAFLHLGDLPAEPNKVIASSSHPDLLGGWDTWAETALPGPASMPVPEGTLFSSAGHPAPPGPNPSQTKSQNPDPFADLSDLSSSLQGLPAGLPAGSFVGTSATTHKSNSSWQTTRPTAPGTSWPPQAKPAPRASEQLRSHFSVIGAREERGVRAPSFAQKPKVSENDFEDLLPNQGFSKSDKKGPKTMAEMRKQELARDTDPFKLKLLDWIEGKERNIRALLSTLHTVLWDGESRWTPVSMADLVTPEQVKKQYRRAVLVVHPDKATGQPYEQSAKMIFMELNDAWSEFENQGSRPLF

binding: binds
B8: HPRT1 (protein, UniProt P27605 1-218)
chain: MSTLSPSVVISDDEPGYDLDLFCIPNHYAEDLEKVFIPHGLIMDRTERLARDVMKEMGGHHIVALCVLKGGYKFFADLLDYIKALNRNSDRSIPMTVDFIRLKSYCNDQSTGDIKVIGGDDLSTLTGKNVLIVEDIIDTGKTMQTLLSLVKQYSPKMVKVASLLVKRTSRSVGYRPDFVGFEIPDKFVVGYALDYNEHFRDLNHVCVISESGKAKYKA

binding: binds
B9: DAB2 (protein, UniProt O88797 1-768)
chain: MSNEVETSTTNGQPDQQAAPKAPSKKEKKKGSEKTDEYLLARFKGDGVKYKAKLIGIDDVPDARGDKMSQDSMMKLKGMAAAGRSQGQHKQRIWVNISLSGIKIIDEKTGVIEHEHPVNKISFIARDVTDNRAFGYVCGGEGQHQFFAIKTGQQAEPLVVDLKDLFQVIYNVKKKEEEKKKVEEANKAEENGSEALMTLDDQANKLKLGVDQMDLFGDMSTPPDLNNPTESRDILLVDLNSEIDTNQNSLRENPFLTNGVTSCSLPRPKPQASFLPESAFSANLNFFPTPNPDPFRDDPFAQPDQSAPSSFHSLTSADQKKANPGSLSTPQSKGPLNGDTDYFGQQFDQISNRTGKQEAQGGPWPYPSSQTQQAVRTQNGVSEKEQNGFHIKSSPNPFVGSPPKGLSVPNGVKQDLESSVQSSAHDSIAIIPPPQSTKPGRGRRTAKSSANDLLASDIFASEPPGQMSPTGQPAVPQANFMDLFKTSAPAPMGSGPLVGLGTVPVTPPQAGPWTPVVFTPSTTVVPGAIISGQPSGFGQPLVFGTTPAVQVWNQPSSFATAASPPPPAVWCPTTSVAPNTWSSTSPLGNPFQSSNIFPPSTISTQSFPQPMMSSVLVTPPQPPPRNGPLKDTLSDAFTGLDPLGDKEVKEVKEMFKDFQLRQPPLVPSRKGETPSSGTSSAFSSYFNNKVGIPQEHVDHDDFDANQLLNKINEPPKPAPRQGVLSGTKSADNSLENPFSKGFSSTNPSVVSQPASSDAHRSPFGNPFA

binding: binds
B10: LGMN (protein, UniProt Q9R0J8 18-325)
chain: VHIGVDDPEDGGKHWVVIVAGSNGWYNYRHQADACHAYQIIHRNGIPDEQIIVMMYDDIANNEENPTPGVVINRPNGTDVYKGVPKDYTGEDVTPENFLAVLRGDEEAVKGKGSGKVLKSGPRDHVFVYFTDHGATGILVFPNEDLHVKDLNKTIRYMYEHKMYQKMVFYIEACESGSMMNHLPDDIDVYATTAANPNESSYACYYDEERSTYLGDWYSVNWMEDSDVEDLTKETLHKQYHLVKSHTNTSHVMQYGNKSISTMKVMQFQGMKHRASSPISLPPVTHLDLTPSPDVPLTILKRKLLRTN

binding: binds
B11: Carbonic anhydrase 3 (protein, UniProt P14141 1-260)
chain: MAKEWGYASHNGPEHWHELYPIAKGDNQSPIELHTKDIRHDPSLQPWSVSYDPGSAKTILNNGKTCRVVFDDTFDRSMLRGGPLSGPYRLRQFHLHWGSSDDHGSEHTVDGVKYAAELHLVHWNPKYNTFGEALKQPDGIAVVGIFLKIGREKGEFQILLDALDKIKTKGKEAPFNHFDPSCLFPACRDYWTYHGSFTTPPCEECIVWLLLKEPMTVSSDQMAKLRSLFASAENEPPVPLVGNWRPPQPIKGRVVRASFK
